Our source for the cell mass values is the supplement of paper PMC7889204.

Structures can show the parent of a compound that is named as a salt. Some of the results follow. Most values come without repeats; read them as rough.

In the experiment the test system is C6. The experiment in a line: cell mass (Coomassie absorbance) after combination of library compound with HMBA, relative to vehicle control (fraction); higher = more remaining cells (less growth inhibition).
Turning to `O=c1ncn2nc(Sc3ccc(F)cc3F)ccc2c1-c1c(Cl)cccc1Cl` + CC(=O)NCCCCCCNC(C)=O [hexamethylene bisacetamide], the cell mass came to 0.377.
As to `N#CCNC(=O)c1ccc(-c2ccnc(Nc3ccc(N4CCOCC4)cc3)n2)cc1` + CC(=O)NCCCCCCNC(C)=O [hexamethylene bisacetamide], the cell mass is 0.58.
In the case of `CCCNC(=O)Nc1ccc(Oc2ncnc3cc(OC)c(OC)cc23)cc1Cl` + CC(=O)NCCCCCCNC(C)=O [hexamethylene bisacetamide], the cell mass amounted to 0.64.
In the case of `O=C1NC(=O)/C(=C/c2ccc3nccc(-c4ccncc4)c3c2)S1` + CC(=O)NCCCCCCNC(C)=O [hexamethylene bisacetamide], the cell mass came out at 0.187.
For the compound `CNC(=O)c1ccc2cc([C@@]3(O)CCn4cncc43)ccc2c1` + CC(=O)NCCCCCCNC(C)=O [hexamethylene bisacetamide], the cell mass amounted to 0.625.
In the case of `CCNC(=O)c1cc2c(-c3cc(OCCN4CCCC4)c(Cl)cc3Cl)nc(N)nc2s1` + CC(=O)NCCCCCCNC(C)=O [hexamethylene bisacetamide], the cell mass stood at 0.57.
For `CN(C)Cc1cccc(N=C(c2ccccc2)c2c(O)[nH]c3cc(C(=O)N(C)C)ccc23)c1` + CC(=O)NCCCCCCNC(C)=O [hexamethylene bisacetamide], the cell mass was determined as 0.653.
As for `Cn1c(N2CCCCS2(=O)=O)nc(C(=O)NCc2ccc(F)cc2)c(O)c1=O` + CC(=O)NCCCCCCNC(C)=O [hexamethylene bisacetamide], the cell mass came out at 0.55.
Turning to `CC[C@H](CO)Nc1nc(NCc2ccccc2)c2cnn(C(C)C)c2n1` [Roscovitine(CYC202)] + CC(=O)NCCCCCCNC(C)=O [hexamethylene bisacetamide], the cell mass worked out at 0.541.
Take `CC(C)(C)c1cnc(CSc2cnc(NC(=O)C3CCNCC3)s2)o1` + CC(=O)NCCCCCCNC(C)=O [hexamethylene bisacetamide]: the cell mass amounted to 0.45.
In the case of `O=C(Cc1ccc(-c2ccc(OCCN3CCOCC3)cc2)cn1)NCc1ccccc1` + CC(=O)NCCCCCCNC(C)=O [hexamethylene bisacetamide], the cell mass came to 0.484.
As to `CCN(CC)CCCCNc1ncc2cc(-c3cc(OC)cc(OC)c3)c(NC(=O)NC(C)(C)C)nc2n1` + CC(=O)NCCCCCCNC(C)=O [hexamethylene bisacetamide], the cell mass stood at 0.495.
As for `CN(c1ncccc1CNc1nc(Nc2ccc3c(c2)CC(=O)N3)ncc1C(F)(F)F)S(C)(=O)=O` + CC(=O)NCCCCCCNC(C)=O [hexamethylene bisacetamide], the cell mass was determined as 0.69.
With `CC(C)[C@H](C(=O)Nc1ccc(C(=O)NO)cc1)c1ccccc1` + CC(=O)NCCCCCCNC(C)=O [hexamethylene bisacetamide], the cell mass was determined as 0.296.
The value for `COc1ccc(-c2ccc3c(N4CCOCC4)nc(N4C[C@@H](C)O[C@@H](C)C4)nc3n2)cc1CO` + CC(=O)NCCCCCCNC(C)=O [hexamethylene bisacetamide] was 0.417.
The result for `CCCCc1nc2cc(/C=C/C(=O)NO)ccc2n1CCN(CC)CC` + CC(=O)NCCCCCCNC(C)=O [hexamethylene bisacetamide] reads 0.216; that for `CCCC(CCC)C(=O)O` [Sodium valproate] + CC(=O)NCCCCCCNC(C)=O [hexamethylene bisacetamide], 0.603.
As to `C[C@@H](Oc1cc(-n2cnc3ccc(CN4CCN(C)CC4)cc32)sc1C(N)=O)c1ccccc1C(F)(F)F` + CC(=O)NCCCCCCNC(C)=O [hexamethylene bisacetamide], the cell mass came out at 0.144.
In the case of `Nc1nccc(Oc2ccc(NC(=O)c3c[nH]cc(-c4ccc(F)cc4)c3=O)cc2F)c1Cl` + CC(=O)NCCCCCCNC(C)=O [hexamethylene bisacetamide], the cell mass amounted to 0.844.
As for `CC[C@H](c1ccc(O)cc1)[C@@H](CC)c1ccc(O)cc1` [Hexestrol] + CC(=O)NCCCCCCNC(C)=O [hexamethylene bisacetamide], the cell mass is 0.616.
Take `O=C(NC1CCNCC1)c1n[nH]cc1NC(=O)c1c(Cl)cccc1Cl` + CC(=O)NCCCCCCNC(C)=O [hexamethylene bisacetamide]: the cell mass stood at 0.559.
The value for `CO[C@H]1/C=C\C=C(/C)C(=O)NC2=CC(=O)C(NCCN(C)C)=C(C[C@@H](C)C[C@H](OC)[C@H](O)[C@@H](C)/C=C(\C)[C@@H]1OC(N)=O)C2=O` + CC(=O)NCCCCCCNC(C)=O [hexamethylene bisacetamide] was 0.247; that for `Cc1ncc(-c2ccnc(Nc3ccc(S(C)(=O)=O)cc3)n2)n1C(C)C` + CC(=O)NCCCCCCNC(C)=O [hexamethylene bisacetamide] was 0.652.
The result for `CNC(=O)c1cc(COc2nnc(Nc3ccc(Cl)cc3)c3ccoc23)ccn1` [Telatinib] + CC(=O)NCCCCCCNC(C)=O [hexamethylene bisacetamide] reads 0.98; that for `CNC(=O)CN1CCC(Oc2cc3c(Nc4cccc(Cl)c4F)ncnc3cc2OC)CC1` + CC(=O)NCCCCCCNC(C)=O [hexamethylene bisacetamide], 0.921.
Consider `CC(C)c1cnn2c(NCc3ccccc3)cc(NCCCCCCN)nc12` [BS-181 hydrochloride] + CC(=O)NCCCCCCNC(C)=O [hexamethylene bisacetamide], for which the cell mass came to 0.597.
Turning to `Cc1ccc(NC(=O)c2cccc(N(C)C)c2)cc1NC(=O)c1ccc(O)cc1` + CC(=O)NCCCCCCNC(C)=O [hexamethylene bisacetamide], the cell mass amounted to 0.77.
The result for `COc1cc(Nc2ncc(F)c(Nc3ccc4c(n3)N(COP(=O)(O)O)C(=O)C(C)(C)O4)n2)cc(OC)c1OC` + CC(=O)NCCCCCCNC(C)=O [hexamethylene bisacetamide] reads 0.378; that for `CCC1=C[C@@H]2CN(C1)Cc1c([nH]c3ccccc13)[C@@](C(=O)OC)(c1cc3c(cc1OC)N(C)[C@H]1[C@@](O)(C(=O)OC)[C@H](OC(C)=O)[C@]4(CC)C=CCN5CC[C@@]31[C@H]54)C2` [Vinorelbine(Navelbine)] + CC(=O)NCCCCCCNC(C)=O [hexamethylene bisacetamide], 0.292.
In the case of `Cn1cc(/C=C/C(=O)c2cccc(F)c2)cc1/C=C/C(=O)NO` + CC(=O)NCCCCCCNC(C)=O [hexamethylene bisacetamide], the cell mass stood at 0.757.
The value for `Cc1ccc(C(=O)Nc2cccc(C(F)(F)F)c2)cc1Nc1nc(-c2cccnc2)nc2c1cnn2C` + CC(=O)NCCCCCCNC(C)=O [hexamethylene bisacetamide] was 0.723; that for `C=CC(=O)Nc1cccc(Sc2nc(Nc3ccc(N4CCN(C)CC4)cc3)ncc2Cl)c1` + CC(=O)NCCCCCCNC(C)=O [hexamethylene bisacetamide] was 0.481.
Turning to `CCCCCCCCCCC[C@@H](C[C@@H]1OC(=O)[C@H]1CCCCCC)OC(=O)[C@H](CC(C)C)NC=O` [Orlistat] + CC(=O)NCCCCCCNC(C)=O [hexamethylene bisacetamide], the cell mass was found to be 0.598.
With `O=S(=O)(c1cccc2cnccc12)N1CCCNCC1` [Fasudil HCl] + CC(=O)NCCCCCCNC(C)=O [hexamethylene bisacetamide], the cell mass was 0.617.
`O=C(O)COCCN1CCN(C(c2ccccc2)c2ccc(Cl)cc2)CC1` (stereo not given) [Cetirizine di hcl] + CC(=O)NCCCCCCNC(C)=O [hexamethylene bisacetamide]: the cell mass amounted to 0.454.
Turning to `O=C(c1ccc(OCCN2CCCCC2)cc1)c1c(-c2ccc(O)cc2)sc2cc(O)ccc12` [Evista(Raloxifene Hydrochloride] + CC(=O)NCCCCCCNC(C)=O [hexamethylene bisacetamide], the cell mass was found to be 0.464.
The value for `CN1CC[C@H](c2c(O)cc(O)c3c(=O)cc(-c4ccccc4Cl)oc23)[C@H](O)C1` [Flavopiridol] + CC(=O)NCCCCCCNC(C)=O [hexamethylene bisacetamide] was 0.263; that for `c1ccc2c(-c3cnn4cc(-c5ccc(N6CCNCC6)cc5)cnc34)ccnc2c1` + CC(=O)NCCCCCCNC(C)=O [hexamethylene bisacetamide] was 0.327; that for `C[C@]12CC[C@@H]3c4ccc(O)cc4C[C@@H](CCCCCCCCC[S+]([O-])CCCC(F)(F)C(F)(F)F)[C@H]3[C@@H]1CC[C@@H]2O` (stereo not given in full) [Fulvestrant] + CC(=O)NCCCCCCNC(C)=O [hexamethylene bisacetamide] was 0.395.
For `CN(C)C1CCN(C(=O)c2ccc(NC(=O)Nc3ccc(-c4nc(N5CCOCC5)nc(N5CCOCC5)n4)cc3)cc2)CC1` + CC(=O)NCCCCCCNC(C)=O [hexamethylene bisacetamide], the cell mass amounted to 0.463.
